Results reported in PubChem BioAssay AID624297 (National Center for Advancing Translational Sciences (NCATS), 2012).
In all, about 340,000 compounds went through this assay and about 6,200 (1.8%) were called active. Inconclusive results, whose numbers are uncertain, are shown with a selection of clear calls. Calls follow the shape of the dose curve; as a rule, active = well fitted activation curve with a large enough effect; inconclusive = small, poorly fitted or top-dose-only effect; inactive = no such curve, though single readings can be large or run the other way. Where the call is inconclusive, the potency comes from a doubtful curve fit. The source holds several records for some structures; these can differ, active in one and inactive in another.

Test: A quantitative high throughput screen for small molecules that induce DNA re-replication in SW480 colon adenocarcinoma cells. Also: nearly all actives have a fitted effect of over 55% in size.
Conditions: Hoechst DNA content imaging, 48 h; series mostly up to 46.1 µM
In short: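 Quantitative HTS format with DMSO vehicle controls; 48 hr drug incubation at 37 C, then 40 min Hoechst staining and scanning imager measurement at 405 nm excitation.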
Potency is read from the fitted curve at half-maximal effect.

SMILES	Potency
COc1ccccc1N1CCN(C(=O)c2cccc(S(=O)(=O)N3CCCCCC3)c2)CC1	inactive
Cc1cc(NC(=O)Nc2ccccc2F)ccc1Br	inconclusive: 4.61 µM [activator, full curve, poor fit]
C=CCn1c(SCc2n[nH]c(=S)n2-c2ccccc2)nnc1-c1ccccc1	inconclusive: 29.1 µM [activator, single point]
CCCC#CCN1CCN(C23CC4CC(CC(C4)C2)C3)CC1	inconclusive: 29.1 µM [activator, single point]
O=C1OCCN1C(=O)[C@H]1[C@H](c2ccc(Cl)cc2)C(c2cccc(Cl)c2)=NN1c1ccccc1	active: 11.6 µM
CN[C@H]1CCc2cc(OC)c(OC)c(OC)c2-c2ccc(N(C)CC(OC)OC)c(=O)cc21	inconclusive: 2.59 µM [activator, full curve, poor fit]
O=C(Cc1c(O)c2ccccc2[nH]c1=O)N(Cc1ccccc1)Cc1ccccc1	inconclusive: 29.1 µM [activator, single point]
COc1ccc(/C=N\NC(=O)c2ccccc2Br)cc1COc1c(F)c(F)cc(F)c1F	inconclusive: 29.1 µM [activator, single point]
Cc1ccccc1OCc1nnc(SCc2cc(=O)[nH]c3ccccc23)n1-c1ccccc1	inconclusive: 2.59 µM [activator, full curve, poor fit]
Nc1nc(N)nc(-c2cc(O)ccc2O)n1	inconclusive: 29.1 µM [activator, single point]
CC1CCCN(C(=O)CSc2n[nH]c(-c3cccs3)n2)C1 (stereo not drawn)	inconclusive: 6.51 µM [activator, partial curve, poor fit]
CSc1nsc(SCC(=O)Nc2ccc(C(N)=O)cc2)n1	inactive
O=c1[nH]c(C2CCN(S(=O)(=O)c3cccc(Cl)c3)CC2)nc2c1nnn2Cc1ccccc1	inconclusive: 23.1 µM [activator, single point]
CCOc1ccccc1N1CC(C(=O)Nc2ccccc2N2CCCC2)CC1=O (stereo not drawn)	inconclusive: 29.1 µM [activator, single point]
O=C(NCCCn1ccnc1)c1ccc2ccccc2c1	inconclusive: 29.1 µM [activator, single point]
Cc1cc(=O)n2nc(N3CCC(C(=O)NCCc4ccc(Cl)cc4)CC3)sc2n1	inactive
COc1ccc(NC(=O)c2cc3c(=O)n4ccccc4nc3n2C)c(OC)c1	inconclusive: 6.51 µM [activator, single point]
Cc1noc(C)c1COc1cccc(C(=O)Nc2ccc(Br)cc2F)c1	active: 14.6 µM
CCOC(=O)/C(C#N)=C1/C(=O)N(Cc2ccccc2)c2ccccc21	inconclusive: 20.6 µM [activator, single point]
Nc1nc(Nc2ccccc2)nc(N2CCCC2)c1[N+](=O)[O-]	inconclusive: 20.6 µM [activator, single point]
N#CC1=C(N)N(c2ccccc2)C2=C(C(=O)CCC2)C1c1ccsc1 (stereo not drawn)	inconclusive: 23.1 µM [activator, single point]
COc1ccc(NC(=O)CSc2nccn2Cc2ccco2)cc1	inactive
CC1CCN(C(=O)c2cc3ccccc3cc2O)CC1	inconclusive: 29.1 µM [activator, single point]

SMILES	Potency
CC1=Nc2cc(C(=O)NCC3CCCO3)ccc2Sc2ccc(Br)cc21 (stereo not drawn)	inconclusive: 16.4 µM [activator, partial curve, poor fit]
Cc1ccc2c(CC(=O)N(C)c3c(N)n(Cc4ccccc4)c(=O)[nH]c3=O)coc2c1	inactive
COc1ccc(CCN2CCC(Nc3nc4ccccc4n3Cc3ccc(F)cc3)CC2)cc1	active: 3.66 µM
CC(=O)Nc1cc(OC(C)=O)c2nonc2c1OC(C)=O	active: 2.91 µM
CC(CCc1ccccc1)NCc1cccc2ccccc12 (stereo not drawn)	inactive
COc1ccc(Cl)cc1NC(=O)c1cccc([N+](=O)[O-])c1O	inactive
CC1CCN(C(=O)CCc2ccc(S(=O)(=O)NC(C)C)cc2)CC1	inactive
Cc1c2c(cc3c1[nH]c1ccccc13)C=NCC2	inconclusive: 29.1 µM [activator, single point]
CCOC(=O)C(C)Oc1cccc2c(=O)n(CC(=O)NCc3ccccc3)ccc12 (stereo not drawn)	active: 1.3 µM
COC(=O)C1=C(C)N(Cc2ccccc2)C(=O)N[C@H]1c1ccccc1	inconclusive: 29.1 µM [activator, single point]
CN(C)c1ccc(-c2nnn(CC(=O)NCc3ccc4c(c3)OCO4)n2)cc1	inconclusive: 6.51 µM [activator, partial curve, poor fit]
CCCCOc1ccc(C(=O)NCC(=O)NCc2ccccn2)cc1	inconclusive: 6.51 µM [activator, partial curve, poor fit]
CCOc1cccc(CN2CCC(Oc3ccc(C(=O)NCc4ccccn4)cc3)CC2)c1	inconclusive: 25.9 µM [activator, single point]
CCOc1ccc(Nc2oc(-c3ccc(Cl)cc3)nc2C#N)cc1	inconclusive: 16.4 µM [activator, single point]
Cc1cc2c(N=O)c(NO)ccc2[nH]1	active: 4.11 µM
CSc1nc(N(C)NC(=O)c2cccc(C)c2)c2ccccc2n1	inconclusive: 2.31 µM [activator, partial curve, poor fit]
CC(C)OCCCNC(=O)c1ccc2c(c1)NC(=O)c1ccccc1S2	inconclusive: 29.1 µM [activator, partial curve, poor fit]
O=C(C1CC(=O)N(c2ccc3c(c2)OCCO3)C1)N1CCN(c2cccc(C(F)(F)F)c2)CC1 (stereo not drawn)	inconclusive: 29.1 µM [activator, single point]
CC1C(=O)N2CCCc3cc(NC(=O)C4CC4)cc1c32 (stereo not drawn)	inactive
CCC(C)N1C(=O)S/C(=C/c2ccc(Sc3nc4ccccc4[nH]3)o2)C1=O (stereo not drawn)	active: 18.4 µM
Cc1ccc(C)c(OCCCCn2ccnc2)c1	inconclusive: 29.1 µM [activator, single point]
O=C1C2CCCN2C(c2ccc(F)cc2)N1c1nccs1 (stereo not drawn)	inactive
O=C(NC1CCCCCC1)c1cccnc1Sc1ccc(Cl)cc1	inconclusive: 23.1 µM [activator, partial curve, poor fit]

SMILES	Potency
CCOc1ccc(NC(=O)C2CCN(S(=O)(=O)c3c(C)noc3C)CC2)cc1	inconclusive: 1.16 µM [activator, full curve, poor fit]
COc1ccc(CCc2ccc3cc(OC)ccc3n2)cc1	inactive
COc1cc(/C=C(\NC(=O)c2ccccc2)C(=O)Nc2nccs2)ccc1OC(C)=O	inconclusive: 6.51 µM [activator, single point]
Cc1cccc(NC(=O)CNC(=O)c2ccccc2Cl)n1	inconclusive: 29.1 µM [activator, single point]
CC1=NN(c2ccccc2)C(=O)/C1=C\N1CC(C)OC(C)C1 (stereo not drawn)	inconclusive: 3.26 µM [activator, partial curve, poor fit]
Cc1ccc(S(=O)(=O)/N=C2/C=C(C3C(=O)CC(C)(C)CC3=O)C(=O)c3ccccc32)cc1	inconclusive: 29.1 µM [activator, single point]
CC1CCN(C(=O)Cn2ncc3c4ccccc4n(C)c3c2=O)CC1	inconclusive: 29.1 µM [activator, partial curve, poor fit]
CC(=NNC(=S)N1CCCCCC1)c1cccc2cccnc12	inconclusive: 0.184 µM [activator, full curve, poor fit]
N#CC(=C=[N-])c1nc2ccccc2nc1-[n+]1ccccc1	inconclusive: 10.3 µM [activator, partial curve]
CSc1nnc2c(n1)OC(c1cccn1C)N(C(C)=O)c1ccccc1-2 (stereo not drawn)	inactive
CC(=O)Nc1nnc(CCS(=O)(=O)c2ccc(C)c(C)c2)s1	inconclusive: 0.259 µM [activator, full curve]
Cc1ccc(NS(=O)(=O)c2ccc(CCC(=O)N3CCOCC3)cc2)cc1	inconclusive: 18.4 µM [activator, single point]
N#Cc1c(-c2ccccc2)c(-c2ccccc2)nn(CC(=O)NNC(=O)Nc2ccc(Cl)c(Cl)c2)c1=O	inconclusive: 20.6 µM [activator, single point]
N#Cc1c(N)n(CCNC(=O)c2ccccc2)c2nc3ccccc3nc12	inconclusive: 16.4 µM [activator, single point]
COc1ccc(CNC(=O)/C(C#N)=C/c2cccc(OC)c2OC)cc1	inconclusive: 29.1 µM [activator, single point]
Cc1ccnc(NS(=O)(=O)c2ccc3ccccc3c2)n1	inactive
Cc1ccc(N(CC(=O)Nc2ccc(-c3nc4ccc(C)cc4s3)cc2)S(C)(=O)=O)cc1	inconclusive: 18.4 µM [activator, partial curve, poor fit]
O=S(=O)(c1ccc(Cl)cc1)N1CCC(c2nc3ccccc3[nH]2)CC1	inconclusive: 18.4 µM [activator, single point]
O=C(NCCNCC(O)COc1ccc(O)cc1)N1CCOCC1 (stereo not drawn)	inactive
COc1ccc(OC)c(NS(=O)(=O)c2cc(OC)ccc2OC)c1	inconclusive: 16.4 µM [activator, single point]
CCC(C)(C)n1nnnc1CN1CCN(c2ccc(OC)cc2)CC1	inactive
CCn1c(/C=C/c2ccc(F)cc2)nc2ccccc2c1=O	inconclusive: 0.517 µM [activator, full curve, poor fit]

Another view of four compounds above:
Cc1ccnc(NS(=O)(=O)c2ccc3ccccc3c2)n1
  Potency: inactive
Cc1ccc(N(CC(=O)Nc2ccc(-c3nc4ccc(C)cc4s3)cc2)S(C)(=O)=O)cc1
  Potency: inconclusive: 18.4 µM [activator, partial curve, poor fit]
O=S(=O)(c1ccc(Cl)cc1)N1CCC(c2nc3ccccc3[nH]2)CC1
  Potency: inconclusive: 18.4 µM [activator, single point]
O=C(NCCNCC(O)COc1ccc(O)cc1)N1CCOCC1 (stereo not drawn)
  Potency: inactive
